Laboratory results from PubChem BioAssay AID1347076 (National Center for Advancing Translational Sciences (NCATS), 2019).
Hit rate of the full screen: of about 400,000 compounds, about 13,000 (3.2%) were called active. Inconclusive results, whose numbers are uncertain, are shown with a selection of clear calls. Calls come from the whole dose curve; as a rule, active = well fitted cell-killing curve with a large enough effect; inconclusive = small, poorly fitted or top-dose-only effect, or effect the other way; inactive = flat fitted curve, though single readings scatter. Potencies beside an inconclusive call are fits to weak or partial responses and may not hold up.
% is set by controls: 0 for no effect and ±100 for the full control effect; potency is the fitted concentration of half-maximal effect.

Test: qHTS assay for MDR1-selective chemotherapeutics: Primary screen using the drug-selected MDR subline cells KB-V1; note: nearly all actives have a fitted effect of over 60% in size
Settings: KB-V1 MDR cells viability, CellTiter-Glo, 72 h; activity change, negative = cytotoxicity: at 46.1 µM (top of the series)
How it was run: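 Cytotoxicity via CellTiter-Glo luminescence after 72 h compound exposure at 37 degrees C. Cells: drug-selected KB-V1 line, DMEM phenol-red free plus 10% FBS. Compounds tested at multiple concentrations; normalized data fitted to concentration-effect curves.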
In the case of `CC(=O)c1ccc(OCc2nnn(CC(=O)NS(=O)(=O)c3ccc(C)cc3)c2-c2ccccc2)cc1`, the “activity change, negative = cytotoxicity” value was inactive: 6.38%.
With `COC(=O)c1nnn(CC(=O)Nc2c(C)cccc2C)c1N` the Potency was inconclusive: 14.6 µM [rising, partial curve, poor fit].
With `COc1cc(CN(C(=O)Nc2cccc(Cl)c2)c2ccccn2)cc(OC)c1OC` the “activity change, negative = cytotoxicity” value was inactive: 6.45%.
With `CCN(CC)c1ccc(C2NC(=O)c3ccccc3N2)cc1` (stereo not drawn) the Potency was active: 2.31 µM.
In the case of `CC(C)c1ccc(S(=O)(=O)N2CCN(CC(=O)Nc3ccccc3C(F)(F)F)CC2)cc1`, the “activity change, negative = cytotoxicity” value was inactive: 3.76%.
With `CCOc1ccccc1NC(=O)c1cc(-c2cc(OC)c(OC)c(OC)c2)nc2ccccc12` the Potency was inconclusive: 14.6 µM [cytotoxic, partial curve].
With `CC(C)CCNC(=O)c1ccc2nc(CCc3ccccc3)oc2c1` the “activity change, negative = cytotoxicity” value was inactive: 1.09%.
In the case of `O=[N+]([O-])c1ccccc1N/N=C1\CC2CC=CC12` (stereo not drawn), the Potency was inconclusive: 2.59 µM [rising, partial curve, poor fit].
In the case of `Cc1ccc(C(=O)NCC(c2cccs2)S(=O)(=O)c2ccccc2)cc1C` (stereo not drawn), the “activity change, negative = cytotoxicity” value was inactive: -4.09%.
In the case of `CCC(=O)Nc1nc2ccccc2n1CCN1CCOCC1`, the Potency was inconclusive: 29.1 µM [rising, partial curve, poor fit].
With `COC(=O)[C@H](CC(C)C)NC(=O)CC[C@H]1O[C@@H](n2ccc(=O)[nH]c2=O)[C@H](O)[C@@H]1O` the “activity change, negative = cytotoxicity” value was inactive: 4.36%.
For `CCOc1cc(/C=C2\C(=N)N3N=C(S(C)(=O)=O)SC3=NC2=O)ccc1OCCOc1cccc(OC)c1`, the “activity change, negative = cytotoxicity” value was inactive: -23.8%.
In the case of `Cc1ccc(S(=O)(=O)N(CC(=O)N2CCC(C)CC2)c2cccc(C)c2)cc1`, the Potency was inconclusive: 2.06 µM [cytotoxic, full curve, poor fit].
For `C=CCN(c1ccccc1)S(=O)(=O)c1cccc(C(=O)Nc2cc(C)ccn2)c1`, the Potency was inconclusive: 29.1 µM [cytotoxic, partial curve, poor fit].
In the case of `FC(F)(F)c1cc(-c2ccco2)nc(NCc2cccnc2)n1`, the Potency was inconclusive: 23.1 µM [cytotoxic, single point].
In the case of `N=C1C(c2nc3ccccc3s2)=C(O)CN1c1ccccc1`, the “activity change, negative = cytotoxicity” value was inactive: -15.8%.
For `Cc1ccccc1Nc1nc(NCc2ccco2)c2ccccc2n1`, the Potency was active: 11.6 µM.
With `O=C(COC(=O)C1CCN(c2ccc(C(F)(F)F)cn2)CC1)NCc1ccc(Cl)cc1Cl` the Potency was inconclusive: 1.64 µM [rising, full curve, poor fit].
In the case of `COc1ccc(NC(=O)C2Cc3c(-c4cccc(C(C)=O)c4)ccnc3O2)cc1OC` (stereo not drawn), the Potency was active: 9.2 µM.
For `COC(=O)c1ccc(C(=O)OC)c(NC(=O)c2c(-c3ccccc3)noc2C)c1`, the Potency was inconclusive: 29.1 µM [cytotoxic, partial curve, poor fit].
With `CC1=C(C(=O)N(C)C)CC(CC(=O)NCCCCc2ccccc2)C(=O)N1CCC1=CCCCC1` (stereo not drawn) the “activity change, negative = cytotoxicity” value was inactive: -2.44%.
In the case of `Cc1cccc(-n2ncc(Cl)c(Cl)c2=O)c1`, the Potency was inconclusive: 18.4 µM [cytotoxic, partial curve, poor fit].
For `CCc1nc2sc3c(c2c(=O)n1NC(=O)CCl)CCCC3`, the Potency was inconclusive: 29.1 µM [cytotoxic, single point].
In the case of `CC(C)(C)c1nc(-c2ccccc2)nc2c1OCCC2`, the Potency was inconclusive: 0.651 µM [rising, full curve, poor fit].
With `COc1ccc(OC)c(Nc2cc(C(=O)NCCCN3CCOCC3)c3ccccc3n2)c1` the Potency was active: 18.4 µM.
For `COc1cccc(/C=C2\SC(=S)N(CCC(=O)NCCc3ccc(O)cc3)C2=O)c1`, the Potency was inconclusive: 29.1 µM [cytotoxic, single point].
With `O=C(CSc1nnc(-c2c[nH]c3ccccc23)o1)N(Cc1ccccc1)c1ccc(F)cc1` the Potency was active: 11.6 µM.
For `CN(C)S(=O)(=O)N1CCC(Oc2ccc(C(=O)NCC(C)(C)CO)cc2)CC1`, the Potency was inconclusive: 18.4 µM [cytotoxic, single point].
In the case of `NC(=O)N/N=C/c1cc(Br)ccc1OCC(=O)NCc1ccccc1`, the Potency was inconclusive: 2.91 µM [cytotoxic, partial curve, poor fit].
With `CC1=C(C#N)C(c2cccnc2)C2=C(CC(c3ccc(Cl)cc3)CC2=O)N1` (stereo not drawn) the “activity change, negative = cytotoxicity” value was inactive: 2.88%.
With `Cc1onc(-c2ccccc2)c1CNC(=O)Nc1cccc(Cl)c1` the “activity change, negative = cytotoxicity” value was inactive: -13.3%.
With `CCOc1ccc(CCNC(=O)c2cc3sccc3n2CC)cc1OCC` the Potency was inconclusive: 20.6 µM [cytotoxic, single point].
With `CC1=C(C(N)=O)C(c2cccc(Br)c2)n2nc(SCc3ccccc3Cl)nc2N1` (stereo not drawn) the “activity change, negative = cytotoxicity” value was inactive: -4.12%.
For `CC1CCN(C(=O)c2ccc(S(=O)(=O)Cc3cccc(F)c3)c([N+](=O)[O-])c2)CC1`, the Potency was inconclusive: 11.6 µM [cytotoxic, partial curve].
In the case of `CC1=C(C(=O)NCc2ccccc2)C(c2cc(Br)cc(Br)c2OC(C)C)NC(=O)N1` (stereo not drawn), the Potency was inconclusive: 18.4 µM [cytotoxic, partial curve].
In the case of `Cc1cc(C)c(C#N)c(SCC(=O)CC(=O)OC(C)C)n1`, the “activity change, negative = cytotoxicity” value was inactive: 0%.
With `CC[C@H](C)[C@@H](C(=O)NCCCCCCCCCCC(=O)N1CCNCC1)n1cc(CCCCN=C(N)N)nn1` the Potency was inconclusive: 14.6 µM [rising, partial curve].
For `CC1CCCCN1C(=O)CSc1nnc(-c2cccnc2)n1C1CCCCC1` (stereo not drawn), the Potency was active: 14.6 µM.
In the case of `O=C(Cc1coc2ccc3ccccc3c12)Nc1nnc(C2CC2)s1`, the Potency was inconclusive: 13 µM [cytotoxic, partial curve, poor fit].
With `OC(c1ccc(Cl)c(Cl)c1)c1ncc(-c2ccccc2C(F)(F)F)[nH]1` (stereo not drawn) the Potency was inconclusive: 29.1 µM [cytotoxic, partial curve, poor fit].
In the case of `COCCSc1ccccc1C(=O)Nc1ccc(Cl)cc1`, the Potency was inconclusive: 18.4 µM [cytotoxic, single point].
In the case of `CCOc1ncccc1C(=O)Nc1nnc(C(CC)CC)s1`, the Potency was inconclusive: 5.17 µM [cytotoxic, full curve, poor fit].
In the case of `CC(C)Oc1ccc(C(CC(=O)NCc2ccco2)c2ccccc2)cc1` (stereo not drawn), the Potency was active: 20.6 µM.
For `Cc1cc2oc(C(=O)Nc3ccc(S(=O)(=O)N4CCC(C)CC4)cc3)cc(=O)c2cc1C`, the Potency was inconclusive: 11.6 µM [rising, single point].
In the case of `CC(=O)O[C@@H]1C[C@H]2C(C)(C)C(=O)C=C[C@]2(C)[C@H]2CC[C@@]3(C)[C@H](c4ccoc4)OC(=O)[C@H]4O[C@]43[C@@]21C`, the activity change, negative = cytotoxicity was inconclusive: -97.2%.
In the case of `CC(OC(=O)c1cccc(-n2cnnn2)c1)C(=O)Nc1ccc(F)c(F)c1F` (stereo not drawn), the Potency was inconclusive: 10.3 µM [rising, partial curve, poor fit].
With `O=C(O)c1cccc2c(-c3ccccc3)c(-c3ccccc3)[nH]c12` the Potency was inconclusive: 29.1 µM [rising, single point].
For `Cc1ccc(Cn2c(-n3nc(C)cc3C)nc3c2c(=O)[nH]c(=O)n3C)cc1`, the “activity change, negative = cytotoxicity” value was inactive: -16.9%.
In the case of `CC(C)C[C@H]1CNC(=S)N1C[C@H]1CCCN1C[C@H](Cc1ccc(O)cc1)N1C[C@H](Cc2ccc(O)cc2)N(CC2CCCCCC2)C1=S`, the Potency was inconclusive: 29.1 µM [cytotoxic, single point].
In the case of `CCOC(=O)c1cc(-c2ccccc2)nc2c1c(C)nn2-c1ccccn1`, the Potency was inconclusive: 32.6 µM [cytotoxic, single point].
For `Cc1cc(NC(=O)c2cnn3cccnc23)n(-c2ccccc2)n1`, the Potency was inconclusive: 8.2 µM [cytotoxic, partial curve].
With `COc1cccc(NC(=S)NC(Cc2ccccc2)c2ccccc2)c1` (stereo not drawn) the Potency was inconclusive: 16.4 µM [cytotoxic, single point].
With `COc1ccc(-n2ncc(C(=O)N3CCN(C(=O)c4ccco4)CC3)c2C2CCN(C(=O)OC(C)(C)C)CC2)cc1` the Potency was inconclusive: 5.17 µM [rising, full curve, poor fit].
For `Cc1ccc(OCC(=O)N/N=C/c2cc([N+](=O)[O-])ccc2N2CCCCC2)cc1`, the “activity change, negative = cytotoxicity” value was inactive: 9.8%.
In the case of `COc1ccc2c(=O)c3c(=O)n(CCc4ccccc4)c(C)nc3oc2c1`, the Potency was inconclusive: 7.31 µM [cytotoxic, partial curve].
With `COc1ccc(NC(=O)CC2C(=O)OCC3CCCCN32)cc1Cl` (stereo not drawn) the Potency was inconclusive: 20.6 µM [cytotoxic, single point].
In the case of `c1cncc(-c2nc(N3CCOCC3)c3c4c(sc3n2)CCC4)c1`, the “activity change, negative = cytotoxicity” value was inactive: -22%.
For `CC1(C(=O)NS(=O)(=O)c2ccccc2)CCN1C(=O)Cc1cccs1` (stereo not drawn), the “activity change, negative = cytotoxicity” value was inactive: 3.79%.
With `COc1ccc(OC)c(-c2csc(NC(=O)CSc3ccc([N+](=O)[O-])cc3)n2)c1` the Potency was inconclusive: 29.1 µM [cytotoxic, single point].
With `O=C(NCc1ccco1)c1ccc2ccccc2c1` the Potency was inconclusive: 20.6 µM [cytotoxic, single point].
In the case of `[O-][n+]1ccccc1SCc1ccccc1`, the Potency was inconclusive: 18.4 µM [rising, single point].
In the case of `COc1ccccc1NC(=O)CSc1ccc(-c2ccco2)nn1`, the Potency was inconclusive: 18.4 µM [cytotoxic, single point].
With `Cc1ccc(S(=O)(=O)N(C)c2ccc(OCC(=O)OCc3nnc(-c4ccccc4)o3)cc2)cc1` the “activity change, negative = cytotoxicity” value was inactive: -20%.
With `COc1ccc(NC(=O)Nc2cc3oc4ccccc4c3cc2OC)cc1` the Potency was inconclusive: 7.31 µM [cytotoxic, partial curve].
In the case of `COCC(=O)Nc1nc2n(n1)C(c1ccccc1)CC(c1ccc(OC)cc1)N2` (stereo not drawn), the Potency was inconclusive: 29.1 µM [cytotoxic, single point].
For `N#Cc1cnc(NN)nc1`, the Potency was inconclusive: 11.6 µM [rising, partial curve, poor fit].
For `O=C(CN1CCOCC1)Nc1nc(-c2ccccc2Cl)cs1`, the “activity change, negative = cytotoxicity” value was inactive: -27.3%.
For `CC1(C)CC(=O)C=C(C(=O)NC2CCCc3c2cnn3-c2cc(F)cc(F)c2)O1` (stereo not drawn), the Potency was inconclusive: 7.31 µM [cytotoxic, partial curve].
